Measured values: publication doi:10.1101/2025.10.01.678329
Read-outs that look alike come from different tables or passages of the source. These are yes or no findings as the source states them, for the method shown. Binding seen in cells or lysates may run through a third protein. Some results given as binding are weak or reduced against the parent protein; the word gives no strength. For part of these data: Sequences can lack the tags named with a protein. One block for each substance: values may come before it.

Chains of the proteins cited; added tags and fusions are not shown. Lines headed by an entry give the natural chain unless they say otherwise; changes in a name come on top. Residues count along the entry.
UniProt Q7Z2W4: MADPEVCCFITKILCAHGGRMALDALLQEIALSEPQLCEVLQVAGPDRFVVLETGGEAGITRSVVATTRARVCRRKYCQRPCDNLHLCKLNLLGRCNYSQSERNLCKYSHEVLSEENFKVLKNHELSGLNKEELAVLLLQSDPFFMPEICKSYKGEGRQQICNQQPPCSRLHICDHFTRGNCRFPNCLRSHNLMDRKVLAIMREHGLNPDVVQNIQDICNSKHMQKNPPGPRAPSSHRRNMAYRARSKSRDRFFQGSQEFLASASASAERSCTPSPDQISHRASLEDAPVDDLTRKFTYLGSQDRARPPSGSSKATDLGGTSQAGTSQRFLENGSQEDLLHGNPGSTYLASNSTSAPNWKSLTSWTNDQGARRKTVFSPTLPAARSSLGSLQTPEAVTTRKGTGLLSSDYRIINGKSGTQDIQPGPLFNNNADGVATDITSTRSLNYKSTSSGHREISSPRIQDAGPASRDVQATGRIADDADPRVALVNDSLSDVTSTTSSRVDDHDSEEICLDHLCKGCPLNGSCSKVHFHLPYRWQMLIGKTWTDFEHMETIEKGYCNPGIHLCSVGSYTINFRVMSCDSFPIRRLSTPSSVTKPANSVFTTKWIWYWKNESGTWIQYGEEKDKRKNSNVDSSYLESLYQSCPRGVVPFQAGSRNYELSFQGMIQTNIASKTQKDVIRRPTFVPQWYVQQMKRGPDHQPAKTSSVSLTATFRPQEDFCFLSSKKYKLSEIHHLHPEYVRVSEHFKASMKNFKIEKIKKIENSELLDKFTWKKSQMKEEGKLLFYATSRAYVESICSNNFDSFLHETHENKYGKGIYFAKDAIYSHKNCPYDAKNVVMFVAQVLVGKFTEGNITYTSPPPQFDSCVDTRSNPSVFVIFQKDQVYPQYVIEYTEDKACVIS
UniProt Q86WV6: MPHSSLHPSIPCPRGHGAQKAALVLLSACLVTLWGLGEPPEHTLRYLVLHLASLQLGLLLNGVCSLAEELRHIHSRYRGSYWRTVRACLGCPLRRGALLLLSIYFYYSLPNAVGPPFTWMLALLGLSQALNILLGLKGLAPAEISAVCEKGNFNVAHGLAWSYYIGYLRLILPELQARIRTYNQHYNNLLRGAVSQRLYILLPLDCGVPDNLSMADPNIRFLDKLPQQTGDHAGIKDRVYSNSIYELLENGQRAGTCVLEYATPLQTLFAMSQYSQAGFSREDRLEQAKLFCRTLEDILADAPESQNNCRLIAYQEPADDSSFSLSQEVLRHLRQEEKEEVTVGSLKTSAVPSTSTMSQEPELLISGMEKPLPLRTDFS
UniProt Q61510: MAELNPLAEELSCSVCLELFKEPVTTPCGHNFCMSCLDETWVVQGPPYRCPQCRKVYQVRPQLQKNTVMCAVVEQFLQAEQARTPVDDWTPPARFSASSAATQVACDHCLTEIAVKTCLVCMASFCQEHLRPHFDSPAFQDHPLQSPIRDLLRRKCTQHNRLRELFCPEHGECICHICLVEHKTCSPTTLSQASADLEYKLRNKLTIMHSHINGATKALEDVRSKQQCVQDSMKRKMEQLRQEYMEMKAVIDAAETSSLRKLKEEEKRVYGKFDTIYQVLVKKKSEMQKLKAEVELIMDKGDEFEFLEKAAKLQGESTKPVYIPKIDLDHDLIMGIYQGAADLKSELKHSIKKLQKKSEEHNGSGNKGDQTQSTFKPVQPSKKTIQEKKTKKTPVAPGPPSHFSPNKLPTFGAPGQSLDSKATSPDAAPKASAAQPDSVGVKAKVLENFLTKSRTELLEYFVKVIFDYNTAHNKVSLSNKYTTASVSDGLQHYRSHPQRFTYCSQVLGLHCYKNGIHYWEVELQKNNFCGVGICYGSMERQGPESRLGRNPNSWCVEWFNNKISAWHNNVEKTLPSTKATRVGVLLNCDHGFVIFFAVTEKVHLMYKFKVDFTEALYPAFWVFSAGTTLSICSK
UniProt Q14258: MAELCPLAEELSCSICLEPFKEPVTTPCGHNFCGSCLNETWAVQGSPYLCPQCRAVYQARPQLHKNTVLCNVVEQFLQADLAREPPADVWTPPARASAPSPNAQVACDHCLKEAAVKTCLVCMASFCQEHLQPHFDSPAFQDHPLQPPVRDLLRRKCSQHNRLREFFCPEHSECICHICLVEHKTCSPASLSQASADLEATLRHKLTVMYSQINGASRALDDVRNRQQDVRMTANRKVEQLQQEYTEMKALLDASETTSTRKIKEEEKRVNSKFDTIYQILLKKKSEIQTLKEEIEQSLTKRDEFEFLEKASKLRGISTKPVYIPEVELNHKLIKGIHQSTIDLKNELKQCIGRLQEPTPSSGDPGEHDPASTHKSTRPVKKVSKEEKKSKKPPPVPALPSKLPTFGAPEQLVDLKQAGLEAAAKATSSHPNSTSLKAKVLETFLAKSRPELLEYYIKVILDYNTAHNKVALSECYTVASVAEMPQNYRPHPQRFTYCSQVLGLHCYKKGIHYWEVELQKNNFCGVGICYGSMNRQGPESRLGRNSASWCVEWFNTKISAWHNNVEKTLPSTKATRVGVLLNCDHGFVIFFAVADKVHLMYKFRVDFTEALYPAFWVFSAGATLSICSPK
UniProt Q6UXG8, residues 35-535: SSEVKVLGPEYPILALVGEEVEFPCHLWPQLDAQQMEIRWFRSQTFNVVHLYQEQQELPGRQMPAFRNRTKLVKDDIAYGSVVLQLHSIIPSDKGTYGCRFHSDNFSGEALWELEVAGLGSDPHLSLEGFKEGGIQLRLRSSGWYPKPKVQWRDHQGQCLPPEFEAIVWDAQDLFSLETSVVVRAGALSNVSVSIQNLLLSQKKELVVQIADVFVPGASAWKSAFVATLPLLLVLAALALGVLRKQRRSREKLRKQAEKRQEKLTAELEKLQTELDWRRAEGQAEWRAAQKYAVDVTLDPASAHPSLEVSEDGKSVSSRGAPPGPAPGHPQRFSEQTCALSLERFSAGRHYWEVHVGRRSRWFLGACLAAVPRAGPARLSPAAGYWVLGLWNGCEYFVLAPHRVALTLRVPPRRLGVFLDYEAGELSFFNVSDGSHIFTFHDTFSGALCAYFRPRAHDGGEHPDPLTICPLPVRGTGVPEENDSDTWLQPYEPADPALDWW
UniProt Q8IUD6: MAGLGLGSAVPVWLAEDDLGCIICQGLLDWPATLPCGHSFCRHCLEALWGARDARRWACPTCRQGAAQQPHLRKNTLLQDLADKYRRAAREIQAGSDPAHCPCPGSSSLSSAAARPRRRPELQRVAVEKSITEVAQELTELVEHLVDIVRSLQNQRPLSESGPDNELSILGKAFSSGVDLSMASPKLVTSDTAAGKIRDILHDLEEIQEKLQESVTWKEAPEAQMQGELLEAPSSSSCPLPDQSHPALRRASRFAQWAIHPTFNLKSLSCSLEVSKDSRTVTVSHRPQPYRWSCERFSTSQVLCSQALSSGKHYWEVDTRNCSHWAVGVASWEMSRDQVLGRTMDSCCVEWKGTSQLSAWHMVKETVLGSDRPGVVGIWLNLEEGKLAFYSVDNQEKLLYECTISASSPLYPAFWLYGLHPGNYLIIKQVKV

Experiments:
Test in all cases: co-IP
ZAP-L-FLAG (human) [1] = biological target: ZAP-L-FLAG (human) (UniProt Q7Z2W4)
ZAP-L-FLAG (human) [2] = biological target: ZAP-L-FLAG (human) (UniProt Q7Z2W4); remark: listed apart in the source
ZAP-L-FLAG (human) [3] = biological target: ZAP-L-FLAG (human) (UniProt Q7Z2W4); remark: listed apart in the source
mouse ZAP-L (mouse) = biological target: T1, mouse ZAP-L (mouse) (UniProt Q3UPF5)
T1 sequence: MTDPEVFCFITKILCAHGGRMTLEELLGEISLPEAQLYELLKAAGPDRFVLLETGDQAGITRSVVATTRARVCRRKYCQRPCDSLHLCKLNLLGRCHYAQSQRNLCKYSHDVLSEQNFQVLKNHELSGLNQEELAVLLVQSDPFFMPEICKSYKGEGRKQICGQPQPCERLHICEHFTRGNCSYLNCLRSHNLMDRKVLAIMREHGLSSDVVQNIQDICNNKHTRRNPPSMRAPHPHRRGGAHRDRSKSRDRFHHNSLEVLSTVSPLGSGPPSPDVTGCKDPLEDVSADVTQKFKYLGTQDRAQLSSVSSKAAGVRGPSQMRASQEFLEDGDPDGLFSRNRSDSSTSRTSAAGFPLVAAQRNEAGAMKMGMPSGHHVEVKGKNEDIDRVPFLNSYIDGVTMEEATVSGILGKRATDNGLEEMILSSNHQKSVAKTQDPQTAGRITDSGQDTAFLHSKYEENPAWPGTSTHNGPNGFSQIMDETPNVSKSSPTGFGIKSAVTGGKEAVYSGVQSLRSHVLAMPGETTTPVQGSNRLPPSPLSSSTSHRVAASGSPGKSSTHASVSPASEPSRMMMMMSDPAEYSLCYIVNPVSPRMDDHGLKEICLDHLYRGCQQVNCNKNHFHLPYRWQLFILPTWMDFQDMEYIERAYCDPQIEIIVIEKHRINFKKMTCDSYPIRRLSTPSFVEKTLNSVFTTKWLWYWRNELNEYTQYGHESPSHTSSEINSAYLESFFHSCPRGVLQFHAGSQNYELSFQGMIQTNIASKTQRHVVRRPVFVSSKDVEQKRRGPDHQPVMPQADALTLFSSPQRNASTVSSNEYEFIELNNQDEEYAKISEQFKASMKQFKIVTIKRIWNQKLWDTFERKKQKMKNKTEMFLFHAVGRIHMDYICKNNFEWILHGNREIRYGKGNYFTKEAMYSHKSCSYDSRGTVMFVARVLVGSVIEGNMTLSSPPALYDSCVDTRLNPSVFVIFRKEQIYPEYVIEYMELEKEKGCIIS

ZAP^E39K (human) = ZAP^E39K (human) (UniProt Q7Z2W4)
STING-FLAG (human) = STING-FLAG (human) (UniProt Q86WV6)
RIG-I-FLAG (human) = biological target: T2, RIG-I-FLAG (human) (UniProt O95786)
T2 sequence: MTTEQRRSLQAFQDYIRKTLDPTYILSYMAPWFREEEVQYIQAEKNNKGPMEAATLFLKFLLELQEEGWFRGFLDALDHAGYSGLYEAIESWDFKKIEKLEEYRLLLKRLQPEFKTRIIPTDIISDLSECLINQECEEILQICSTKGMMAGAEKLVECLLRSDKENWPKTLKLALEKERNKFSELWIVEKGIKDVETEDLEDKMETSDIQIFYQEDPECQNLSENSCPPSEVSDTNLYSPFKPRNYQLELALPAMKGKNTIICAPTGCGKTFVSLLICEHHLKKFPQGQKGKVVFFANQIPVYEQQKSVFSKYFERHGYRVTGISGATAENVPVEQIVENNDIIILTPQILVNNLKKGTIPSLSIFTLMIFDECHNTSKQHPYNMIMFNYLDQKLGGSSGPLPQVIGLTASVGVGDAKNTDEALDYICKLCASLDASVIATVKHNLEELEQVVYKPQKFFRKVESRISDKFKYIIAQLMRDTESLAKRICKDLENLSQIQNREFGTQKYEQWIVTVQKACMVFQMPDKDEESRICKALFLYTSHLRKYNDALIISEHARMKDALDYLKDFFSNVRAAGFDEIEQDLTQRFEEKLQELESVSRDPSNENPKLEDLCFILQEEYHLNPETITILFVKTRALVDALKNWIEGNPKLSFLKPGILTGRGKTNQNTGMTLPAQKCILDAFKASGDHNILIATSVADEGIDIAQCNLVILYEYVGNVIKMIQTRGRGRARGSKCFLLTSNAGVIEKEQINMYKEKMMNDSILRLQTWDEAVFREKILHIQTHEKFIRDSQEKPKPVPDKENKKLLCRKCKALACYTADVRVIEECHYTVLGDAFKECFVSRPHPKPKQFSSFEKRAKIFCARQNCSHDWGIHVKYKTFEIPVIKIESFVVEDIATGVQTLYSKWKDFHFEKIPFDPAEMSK

Substance: mouse TRIM25 (from UniProt Q61510 1-634) (enzyme)
binding (mouse ZAP-L (mouse)): binds

Substance: TRIM25^K469E (from UniProt Q14258 1-630) (enzyme)
binding (ZAP-L-FLAG (human) [2]): binds | binding (ZAP^E39K (human)): binds

Substance: butyrophilin-like 9 (BTNL9)-HA (from UniProt Q6UXG8 35-535)
binding (STING-FLAG (human)): binds

Substance: TRIM25 with the SPRY domain of Riplet (T25-Riplet^SPRY) (from UniProt Q14258 1-403; Q8IUD6 241-432)
binding (RIG-I-FLAG (human)): binds

The next lines start with the values.

binding (ZAP-L-FLAG (human) [1]): binds | binding (ZAP-L-FLAG (human) [2]): binds | binding (ZAP-L-FLAG (human) [3]): binds
Substance: TRIM25-HA (from UniProt Q14258 1-630) (enzyme)

binding (ZAP-L-FLAG (human) [2]): binds
Substance: Riplet with the SPRY domain of TRIM25 (Riplet-T25^SPRY) (from UniProt Q8IUD6 1-240; Q14258 404-630)
